PubChem BioAssay AID602196 – INSERM, 2012

- Screen: 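Knock-downs that protect lung cancer cells from cisplatin or sensitise them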
- Cells: human A549 lung cancer cells
- Reagent: siRNA pair against human genes
- Time to read-out: 48 h transfection before cisplatin; time from cisplatin to read-out not stated
- Challenge: cisplatin at a dose killing half of control-siRNA cells; exact dose and duration not given
- Measurement: 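Cisplatin cell death as a shift from the 50% death seen with control siRNA; siRNAs toxic or growth-blocking alone scored 0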
- Scale: two-siRNA summed score (-2 to +2): higher = both siRNAs protect from cisplatin killing; -2 means both sensitise; mean protection from cisplatin (shift in death): higher = protection from cisplatin killing
- Active means: 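siRNAs harmful alone (LDH or WST-1) get 0; others get +1 for less and -1 for more cisplatin killing; genes are active when the two siRNAs give the same sign, summing to ±2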
- Calls: active = both siRNAs shift cisplatin killing the same way; inactive = no consistent shift, or siRNA harmful alone
The deposit covers about 23,000 reagents; shown is a random part of them. Over the whole deposit, 455 (2%) are marked active. 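Active includes both protection and sensitisation; some change values fall well beyond the stated -50 to +50 range.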 Further read-outs or replicates are left out here. Not given: the amount of reagent.

{"target gene": "IL20 (GeneID 50604)", "two-siRNA summed score (-2 to +2)": 0, "mean protection from cisplatin (shift in death) (%)": -3.9, "outcome": "inactive"}
{"target gene": "NXT2 (GeneID 55916)", "two-siRNA summed score (-2 to +2)": -1, "mean protection from cisplatin (shift in death) (%)": -14.9, "outcome": "inactive"}
{"target gene": "ZNF251 (GeneID 90987)", "two-siRNA summed score (-2 to +2)": 0, "mean protection from cisplatin (shift in death) (%)": 2, "outcome": "inactive"}
{"target gene": "SMN2 (GeneID 6607)", "two-siRNA summed score (-2 to +2)": 0, "mean protection from cisplatin (shift in death) (%)": 8.2, "outcome": "inactive"}
{"target gene": "PCDHA6 (GeneID 56142)", "two-siRNA summed score (-2 to +2)": 0, "mean protection from cisplatin (shift in death) (%)": -4, "outcome": "inactive"}
{"target gene": "HLA-B (GeneID 3106)", "two-siRNA summed score (-2 to +2)": 0, "mean protection from cisplatin (shift in death) (%)": 9.2, "outcome": "inactive"}
{"target gene": "SFMBT2 (GeneID 57713)", "two-siRNA summed score (-2 to +2)": 1, "mean protection from cisplatin (shift in death) (%)": 15.1, "outcome": "inactive"}
{"target gene": "SMTNL2 (GeneID 342527)", "two-siRNA summed score (-2 to +2)": 0, "mean protection from cisplatin (shift in death) (%)": 6.9, "outcome": "inactive"}
{"target gene": "EGFR (GeneID 1956)", "two-siRNA summed score (-2 to +2)": 0, "mean protection from cisplatin (shift in death) (%)": 7.8, "outcome": "inactive"}
{"target gene": "RAC1 (GeneID 5879)", "two-siRNA summed score (-2 to +2)": 1, "mean protection from cisplatin (shift in death) (%)": 8.8, "outcome": "inactive"}
{"target gene": "LOC401700", "two-siRNA summed score (-2 to +2)": 0, "mean protection from cisplatin (shift in death) (%)": 1.3, "outcome": "inactive"}
{"target gene": "TTC21B (GeneID 79809)", "two-siRNA summed score (-2 to +2)": 0, "mean protection from cisplatin (shift in death) (%)": -2.7, "outcome": "inactive"}
{"target gene": "PLTP (GeneID 5360)", "two-siRNA summed score (-2 to +2)": -1, "mean protection from cisplatin (shift in death) (%)": -36.6, "outcome": "inactive"}
{"target gene": "EFNB2 (GeneID 1948)", "two-siRNA summed score (-2 to +2)": -1, "mean protection from cisplatin (shift in death) (%)": -6.4, "outcome": "inactive"}
{"target gene": "CCL14 (GeneID 6358)", "two-siRNA summed score (-2 to +2)": 0, "mean protection from cisplatin (shift in death) (%)": -4.4, "outcome": "inactive"}
{"target gene": "VAX2 (GeneID 25806)", "two-siRNA summed score (-2 to +2)": 0, "mean protection from cisplatin (shift in death) (%)": -9.5, "outcome": "inactive"}
{"target gene": "ZNF257 (GeneID 113835)", "two-siRNA summed score (-2 to +2)": 0, "mean protection from cisplatin (shift in death) (%)": 2.7, "outcome": "inactive"}
{"target gene": "LOC440713", "two-siRNA summed score (-2 to +2)": 0, "mean protection from cisplatin (shift in death) (%)": 27.5, "outcome": "inactive"}
{"target gene": "PRDM10 (GeneID 56980)", "two-siRNA summed score (-2 to +2)": 0, "mean protection from cisplatin (shift in death) (%)": 15.6, "outcome": "inactive"}
{"target gene": "SNCG (GeneID 6623)", "two-siRNA summed score (-2 to +2)": 0, "mean protection from cisplatin (shift in death) (%)": 6.8, "outcome": "inactive"}
{"target gene": "TMEM87A (GeneID 25963)", "two-siRNA summed score (-2 to +2)": 0, "mean protection from cisplatin (shift in death) (%)": -8.7, "outcome": "inactive"}
